Measurements as given in PubChem BioAssay AID1487 (National Center for Advancing Translational Sciences (NCATS), 2009).
Among all 200,000 compounds or so, about 25 (0.01%) were called active. This list was built around the results that the source calls inconclusive (neither active nor inactive); the mix of calls is not that of the screen. Calls come from the whole dose curve; as a rule, active = well fitted inhibition curve with a large enough effect in the signal ratio, with a control signal flat (not every such curve was filed as active); inconclusive = small, poorly fitted or top-dose-only effect, or effect the other way, or a change in a side signal; inactive = flat fitted curve, though single readings scatter; the % refers to the signal ratio. A potency beside an inconclusive call is a rough fit, not a confirmed value.
% is set by controls: 0 for no effect and ±100 for the full control effect; potency is the fitted concentration of half-maximal effect.

Assay: qHTS Assay for Modulators of Lamin A Splicing
Conditions: HeLa LMNA splicing GFP/RFP minigene ratio, 48 h; ratio change, negative = inhibition: at 46.1 µM (top of the series) unless noted
In short: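 S3 HeLa cells stably expressing lamin A-EGFP splicing minigene plus DsRed2, 600 cells/well, 48 h compound exposure at 37C. Laser-scanning cytometry; analysed as GFP (500-530 nm)/RFP (575-640 nm) total intensity ratio; 0.5% DMSO vehicle.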
In the case of `O=C(CSc1nnc(-c2ccc(S(=O)(=O)N3CCCC3)cc2)o1)NCc1ccccc1`, the Potency is reported as inconclusive: 11.2 µM [falling, partial curve, poor fit].
In the case of `O=S(=O)(c1cccs1)N1CCN(S(=O)(=O)c2cccs2)CC1`, the ratio change, negative = inhibition is reported as inconclusive: 5.48% [at 46 µM].
In the case of `Nc1ccc(-c2ccc3ccccc3n2)cc1`, the ratio change, negative = inhibition is reported as inconclusive: -10.1%.
With `COc1cc(NC(=O)C2CCN(C(=O)c3sc4nc[nH]c(=O)c4c3C)CC2)cc(OC)c1OC` the ratio change, negative = inhibition was inconclusive: 25.8% [at 46 µM].
For `O=C(CC1CCS(=O)(=O)C1)NC1CCCCC1` (stereo not drawn), the “ratio change, negative = inhibition” value was inactive: -2.47%.
For `N#Cc1ccc(-c2csc(NNC(=O)c3ccccc3)n2)cc1`, the ratio change, negative = inhibition was inconclusive: -25.9%.
For `COc1ccc2c(c1)SC1=NCCS(=O)(=O)N12`, the ratio change, negative = inhibition was inconclusive: -0.0032%.
For `O=C(/C=C1\NC2(CCCC2)Cc2ccccc21)C(=O)N/N=C/c1ccc(O)c(O)c1`, the ratio change, negative = inhibition was inconclusive: -24.1%.
With `CCOc1ccccc1-n1c(SCC(=O)NC)nnc1-c1ccco1` the “ratio change, negative = inhibition” value was inactive: 3.6%.
For `Cc1ccc(C(=O)NCCSc2ccc(Cl)cc2)cc1[N+](=O)[O-]`, the Potency was inconclusive: 35.5 µM [rising, single point].
With `COc1ccc([N+](=O)[O-])cc1NC(=O)C1(c2ccc(OC)c(OC)c2)CCOCC1` the ratio change, negative = inhibition was inconclusive: 25.3% [at 46 µM].
For `O=C(Cc1cccs1)Nc1ccc(-c2nnn(CC(=O)N3CCOCC3)n2)cc1`, the “ratio change, negative = inhibition” value was inactive: -4.4%.
With `CCC(C)c1ccccc1OCCCCN1CCCC1` (stereo not drawn) the “ratio change, negative = inhibition” value was inactive: -0.51%.
For `CCOc1cccc(C(=O)NC(=S)Nc2cccc(C)c2)c1`, the ratio change, negative = inhibition was inconclusive: 7.2%.
With `O=[N+]([O-])c1cc(C(F)(F)F)ccc1NCCc1c[nH]c2ccccc12` the Potency was inconclusive: 35.5 µM [falling, single point].
For `O=C1OC2(CCCC2)OC(=O)C1=Cc1c[nH]c2ccccc12`, the ratio change, negative = inhibition was inconclusive: -17.3% [at 46 µM].
With `COc1ccc(N2CCN(c3ccc(C(N)=O)cc3[N+](=O)[O-])CC2)cc1` the “ratio change, negative = inhibition” value was inactive: -23.2% [at 46 µM].
With `OCCSc1nc(-c2ccccc2)nc2ccc(F)cc12` the ratio change, negative = inhibition was inconclusive: -30.2% [at 46 µM].
For `CC1(C)CC(=O)C(N=Nc2ccc3ncsc3c2)=C(O)C1`, the “ratio change, negative = inhibition” value was inactive: 11.6%.
In the case of `Cc1ccc(Cn2nnc3c(=O)[nH]c(C4CCCN(C(=O)Nc5ccc(F)cc5F)C4)nc32)cc1` (stereo not drawn), the “ratio change, negative = inhibition” value is reported as inactive: 9.51%.
For `CN(Cc1ccco1)c1ncncc1-c1ccccc1Cl`, the Potency was inconclusive: 35.5 µM [cytotoxic, single point].
With `Cc1ccc(NC2=CC(=O)CC(c3ccccc3)C2)cc1` (stereo not drawn) the ratio change, negative = inhibition was inconclusive: -27.6%.
With `O=C(COC(=O)c1ccc(CO)cc1)NCc1cccs1` the “ratio change, negative = inhibition” value was inactive: 7.85%.
For `COc1cc(/C=N/NC(=O)CC23CC4CC(CC(C4)C2)C3)cc(Br)c1OCC(=O)N(C)C`, the ratio change, negative = inhibition was inconclusive: -38.8%.
For `CSc1ncc(C(=O)Nc2ccccc2C(F)(F)F)c(-c2ccccc2)n1`, the ratio change, negative = inhibition was inconclusive: -5.98% [at 46 µM].
In the case of `Cc1ccc(OCC(O)CNS(=O)(=O)c2ccccc2C(=O)O)cc1` (stereo not drawn), the “ratio change, negative = inhibition” value is reported as inactive: 13%.
For `CC(C)Cc1csc(NC(=O)c2ccccc2Cl)c1C(=O)O`, the Potency was inconclusive: 35.5 µM [fluorescent, single point].
In the case of `Cc1ccc(NC2=C(NC(=O)c3ccccc3)C(=O)c3ccccc3C2=O)cc1Cl`, the Potency is reported as inconclusive: 35.5 µM [falling, single point].
In the case of `OCCn1nc2c3ccccc3nc-2n(-c2ccccc2)c1=S`, the “ratio change, negative = inhibition” value is reported as inactive: -2.39%.
With `NS(=O)(=O)c1cccc(NC(=O)CN2CCc3ccccc32)c1` the ratio change, negative = inhibition was inconclusive: -11.4% [at 46 µM].
For `CN(C)c1ccc(N/C=C/C(=O)c2ccco2)cc1`, the “ratio change, negative = inhibition” value was inactive: 20.8%.
In the case of `CCOC(=O)N1CCN(S(=O)(=O)c2ccc(C(=O)Nc3ccc(F)cc3F)cc2)CC1`, the ratio change, negative = inhibition is reported as inconclusive: 17.2%.
For `COc1ccc(CCn2c(=O)[nH]c3cc(C(=O)N4CCN(c5ccccc5)CC4)ccc3c2=O)cc1OC`, the Potency was inconclusive: 8.91 µM [cytotoxic, partial curve].
With `C[n+]1c2n(c3ccccc31)N=C(c1ccc(-c3ccccc3)cc1)CS2` the “ratio change, negative = inhibition” value was inactive: -6.61% [at 46 µM].
For `Cc1ccc(S(=O)(=O)N=Nc2c(O)[nH]c3ccccc23)cc1`, the “ratio change, negative = inhibition” value was inactive: 7.06%.
In the case of `COc1ccc(-c2csc(N3CCC(C(N)=O)(N4CCCCC4)CC3)n2)cc1`, the Potency is reported as inconclusive: 35.5 µM [falling, single point].
For `O=c1[nH]c2ccccc2c(O)c1SCCO`, the ratio change, negative = inhibition was inconclusive: -9% [at 46 µM].
With `COc1ccc(NC(=O)Cn2c(=O)oc3cc(S(=O)(=O)N4CCCCC4C)ccc32)cc1` (stereo not drawn) the “ratio change, negative = inhibition” value was inactive: 21.5% [at 46 µM].
For `C/C=C/c1ccc(OCCCCNCc2ccco2)c(OC)c1`, the ratio change, negative = inhibition was inconclusive: -18.9% [at 46 µM].
In the case of `Cc1ccc(S(=O)(=O)c2cc3ccccc3oc2=Nc2ccc3c(c2)OCCO3)cc1`, the ratio change, negative = inhibition is reported as inconclusive: 24.3%.
In the case of `CCOc1ccc(OCC)c(NC(=O)CSCC(=O)O)c1`, the “ratio change, negative = inhibition” value is reported as inactive: -9.48%.
With `CCOC(=O)CN1C(=O)Nc2ccc(Br)cc2C1c1ccccc1` (stereo not drawn) the ratio change, negative = inhibition was inconclusive: 6.87%.
For `CC(O)CNCCCCOc1ccc(OCc2ccccc2)cc1` (stereo not drawn), the ratio change, negative = inhibition was inconclusive: 9.85% [at 46 µM].
In the case of `CCOC(=O)C1(Cc2ccccc2C)CCCN(C(=O)CCc2cccnc2)C1` (stereo not drawn), the ratio change, negative = inhibition is reported as inconclusive: 11.7% [at 46 µM].
For `CCOC(=O)NC(=O)COC(=O)CNC(=O)c1cccc(OC)c1`, the ratio change, negative = inhibition was inconclusive: 8.28% [at 46 µM].
In the case of `Cc1ccc(S(=O)(=O)N2c3cc(C)ccc3OCC2C(C)(C)C)cc1` (stereo not drawn), the ratio change, negative = inhibition is reported as inconclusive: -39%.
For `COc1ccc(OC)c(-c2noc(N3CCN(c4ccc(C(C)=O)cc4)CC3)n2)c1`, the “ratio change, negative = inhibition” value was inactive: -12.5% [at 46 µM].
For `CCN(CC)C(=S)SCC(=O)c1ccc(Br)cc1`, the Potency was inconclusive: 35.5 µM [falling, single point].
In the case of `Cn1c(N2C(=O)CC(Cc3ccccc3)C2=O)nc2ccccc21` (stereo not drawn), the “ratio change, negative = inhibition” value is reported as inactive: -3.2%.
With `CNc1oc(/C=C/c2ccccc2)nc1C#N` the ratio change, negative = inhibition was inconclusive: -34.7%.
With `Cc1nnc(SCc2cc(=O)n3cccc(C)c3n2)s1` the ratio change, negative = inhibition was inconclusive: -13.1% [at 46 µM].
In the case of `CCOc1cc(-c2cc(-c3ccc(N)cc3)nc(N)c2C#N)ccc1O`, the “ratio change, negative = inhibition” value is reported as inactive: -18.7%.
In the case of `CCCc1c(C)nc2ccccc2c1SCCC#N`, the ratio change, negative = inhibition is reported as inconclusive: -7.94%.
With `COc1ccc(NS(=O)(=O)c2ccc3c(c2)CCC(=O)N3)c(OC)c1` the ratio change, negative = inhibition was inconclusive: 12.8%.
For `O=C(C1CCN(C2CC(=O)N(c3ccc(F)cc3)C2=O)CC1)N1CCOCC1` (stereo not drawn), the “ratio change, negative = inhibition” value was inactive: 2.45%.
For `CC1=C(C(=O)Nc2ccccn2)C(c2cccnc2)n2nnnc2N1` (stereo not drawn), the ratio change, negative = inhibition was inconclusive: 10.1%.
With `N#C/C(=N/O)c1nc(-c2ccc(F)cc2)cs1` the Potency was inconclusive: 35.5 µM [fluorescent, single point].
In the case of `Cc1cc(S(=O)(=O)N2CCN(c3ccc(F)cc3)CC2)c(C)s1`, the ratio change, negative = inhibition is reported as inconclusive: -30.9%.
In the case of `CCOC(=O)N1N=C(C)CC1(O)c1ccc(Cl)cc1` (stereo not drawn), the ratio change, negative = inhibition is reported as inconclusive: -1.89% [at 46 µM].
With `COc1cccc(CC(=S)N2CCOCC2)c1` the ratio change, negative = inhibition was inconclusive: -4.09%.
With `CN(C(=O)CSc1nncc2ccccc12)C1CCCCC1` the “ratio change, negative = inhibition” value was inactive: -27.8% [at 46 µM].
For `COC(=O)/C=C\C(=O)Nc1cccc([N+](=O)[O-])c1`, the ratio change, negative = inhibition was inconclusive: 476%.
With `COc1ccc(N2CCN(C(c3nnnn3CCc3ccccc3)C(C)C)CC2)cc1` (stereo not drawn) the Potency was inconclusive: 35.5 µM [falling, single point].
In the case of `Cc1cc(=O)[nH]c2ccccc12`, the “ratio change, negative = inhibition” value is reported as inactive: 6.22%.
In the case of `O=C(CN1C(=O)c2ccccc2C1=O)NCCc1c[nH]c2ccccc12`, the “ratio change, negative = inhibition” value is reported as inactive: 4.32%.
For `O=C(CSc1nnc(CNc2ccc(F)cc2)o1)c1ccccc1`, the ratio change, negative = inhibition was inconclusive: -21.1% [at 46 µM].
For `N#C/C(C(=O)NCc1ccccc1)=C1/N=C(NC(=O)c2cccs2)c2ccccc21`, the “ratio change, negative = inhibition” value was inactive: -6.57%.
With `Cc1cccc(N2C(=O)CSC23C(=O)N(CC(=O)Nc2cccc(Cl)c2)c2ccccc23)c1` (stereo not drawn) the “ratio change, negative = inhibition” value was inactive: -23.5% [at 46 µM].
In the case of `CC(=O)Nc1ccc(S(=O)(=O)NCC2CCC(C(=O)NC3CCCCCC3)CC2)cc1` (stereo not drawn), the ratio change, negative = inhibition is reported as inconclusive: -5.92%.
For `COc1ccc(C(CC(=O)NCc2ccco2)c2ccc(F)cc2)cc1` (stereo not drawn), the “ratio change, negative = inhibition” value was inactive: 2.88%.
For `O=C(CCC(=O)N/N=C/c1cc(Cl)cc(Cl)c1O)NCc1ccccc1`, the “ratio change, negative = inhibition” value was inactive: 15.6% [at 46 µM].
In the case of `CC1(C)[C@H]2CC=C(CN3CCC(N4CCC(C(=O)N5CCCC5)CC4)CC3)[C@@H]1C2`, the ratio change, negative = inhibition is reported as inconclusive: 9.35% [at 46 µM].
With `Cc1sc(NC(=O)/C=C/c2ccc3c(c2)OCO3)nc1-c1ccccc1` the ratio change, negative = inhibition was inconclusive: 13.8%.
In the case of `Cn1c(NC(=O)c2ccc(S(=O)(=O)N3CCCCC3)cc2)cc(=O)n(C)c1=O`, the ratio change, negative = inhibition is reported as inconclusive: -1.3%.
With `O=C(c1ccc(CS(=O)(=O)c2ccc(Br)cc2)o1)N1CCCC1` the “ratio change, negative = inhibition” value was inactive: -4.87%.
In the case of `O=S(Cc1ccc(Br)cc1)Cc1nnc(SCc2c(Cl)cccc2Cl)n1-c1ccccc1` (stereo not drawn), the ratio change, negative = inhibition is reported as inconclusive: -27%.
In the case of `O=C(CCN1C(=O)C2CC=C(Cl)CC2C1=O)NCc1ccco1` (stereo not drawn), the “ratio change, negative = inhibition” value is reported as inactive: 3.74%.
For `COc1ccc(CCNC(=O)COc2ccc(S(=O)(=O)N3CCCC3)cc2)cc1`, the ratio change, negative = inhibition was inconclusive: 7.42% [at 46 µM].
For `COc1ccc(C)cc1NC(=O)c1c2c(nc3ccccc13)C(=O)N(C1CCCCC1)C2`, the ratio change, negative = inhibition was inconclusive: -31.5% [at 46 µM].
For `COc1ccc2c(c1)O[C@@H](c1cccc(C(F)(F)F)c1)[C@H](OC(=O)Nc1ccc(OC(F)F)cc1)C2=O`, the Potency was inconclusive: 35.5 µM [fluorescent, single point].
For `CC(C)c1ccc(C2=CC(c3cccc(Cl)c3)n3c(nc4ccccc43)N2)cc1` (stereo not drawn), the ratio change, negative = inhibition was inconclusive: 2.75% [at 46 µM].
For `CN(CC(=O)Nc1cccc(S(=O)(=O)NC2=NCCCCC2)c1)Cc1ccc(C(C)(C)C)cc1`, the Potency was inconclusive: 7.94 µM [inhibitor, partial curve].
With `CC1CCCCN1CCCNC(=O)CN1C(=O)CSc2ccc(S(=O)(=O)N3CCOCC3)cc21` (stereo not drawn) the Potency was inconclusive: 25.1 µM [inhibitor, partial curve, poor fit].
